Reference: patent US9309247B2, “2-substituted imidazo[4,5-D]phenanthroline derivatives and their use in the treatment of cancer” (Aptose Biosciences Inc., priority 2013, dated 2016)

Columns and labels:
Type in all cases: cell-based
Conditions in all cases: rank among eight compounds, one = lowest IC50
[1] = test system: EL4 (mouse, lymphoma); experiment: Cell growth inhibition assay, EL4
Description: (§1) In this study, compounds 1-8 were screened in vitro against a panel of four mouse lymphoma cell lines and two human lymphoma cell line for cell growth inhibition activity. Following treatment, half maximal inhibitory concentrations (IC50) were determined with the objective of selecting the most efficacious compounds for evaluation of in vitro absorption, distribution, metabolism, and excretion (ADME) screening.
(§2) Similarly, human Burkitt's lymphoma Ramos cells (ATCC CRL-1596) were grown in suspension in Roswell Park Memorial Institute (RPMI) 1640 medium supplemented with 10% fetal bovine serum (FBS), 10 mM HEPES KOH pH 7.4, and 2 mM sodium pyruvate. Mouse P388D1 (ATCC CCL-46) and WR19L (ATCC TIB-52) cells were grown in suspension in Dulbecco's Modified Eagle Medium (DMEM) with 10% fetal bovine serum (FBS), 10 mM HEPES, and 2 mM sodium pyruvate. Mouse WEHI231 (ATCC CRL-1702) and EL4 (ATCC TIB-39) cells were grown in suspension in DMEM with 10% fetal bovine serum (FBS), 10 mM HEPES KOH pH 7.4, 2 mM sodium pyruvate, and 0.05 mM β-mercaptoethanol. All cells were maintained at 37° C. in an atmosphere of 5% CO2 in air. Logarithmically growing cells were routinely sub-cultured twice weekly. Briefly, cells were collected by centrifugation, resuspended in pre-warmed media, and diluted 1:10 into a 75 cm^2 flask.
(§3) Cells were subcultured and 4×10^3 cells (in 50 μL) were transferred to each well in a Falcon 96-well tissue culture plate. Exemplary compounds were dissolved in pure dimethyl sulphoxide (DMSO) at a concentration of 10 mM. From this 10 mM stock solution, 12 successive serial dilutions were made in DMSO (2.5 fold dilutions), ranging from 0.52 μM to 10 mM. Using these stock dilutions, 5 μL of each were added to 500 μL of media, and 50 μL of this was added to the cells. The final concentrations being tested ranged from 0.0026 μM to 50 μM. Each concentration was tested in triplicate, and DMSO and untreated cells were also included as controls. After five days of incubation with the compounds, cell viability was determined using the XTT cell proliferation kit (Roche, Cat. No. 11 465 015 001). Following the XTT protocol, 4.5-24 hours after addition of the reagent, the plates were read in a μQuant 96-well plate spectrophotometer (Biotek Instruments Inc.) and the results analyzed to determine the IC50.

[2] = test system: Human Burkitt's lymphoma Raji cells; experiment: Cell growth inhibition assay, Raji
Description: as §1
Human Burkitt's lymphoma Raji cells (ATCC CCL-86) were grown in suspension in Roswell Park Memorial Institute (RPMI) 1640 medium supplemented with 10% fetal bovine serum (FBS), 10 mM HEPES KOH pH 7.4, and 2 mM sodium pyruvate at 37° C. in an atmosphere of 5% CO2 in air. Logarithmically growing cells were routinely sub-cultured twice weekly. Briefly, cells were collected by centrifugation, resuspended in pre-warmed media, and diluted 1:10 into a 75 cm^2 flask.
as §3

[3] = test system: WR19L (mouse, lymphoma); experiment: Cell growth inhibition assay, WR19L
Description: as §1, §2, §3

[4] = test system: P388D1 (mouse, lymphoma); experiment: Cell growth inhibition assay, P388D1
Description: as §1, §2, §3

[5] = test system: WEHI 231 (mouse, B-cell lymphoma); experiment: Cell growth inhibition assay, WEHI231
Description: as §1, §2, §3

[6] = test system: human Burkitt's lymphoma Ramos cells; experiment: Cell growth inhibition assay, Ramos
Description: as §1, §2, §3

| SMILES | Ranking of efficacy, EL4 (ms) [1] | Ranking of efficacy, Raji (hs) [2] | Ranking of efficacy, WR19L (ms) [3] | Ranking of efficacy, P388D1 (ms) [4] | Ranking of efficacy, WEHI231 (ms) [5] | Ranking of efficacy, Ramos (hs) [6] |
| --- | --- | --- | --- | --- | --- | --- |
| FC1(F)Oc2ccc(-c3nc4c5cccnc5c5ncccc5c4[nH]3)cc2O1 [Compound 7] | 5 | 5 | 5 | 3 | 6 | 5 |
| FC1(F)Oc2ccc(-c3nc4c5cccnc5c5ncccc5c4[nH]3)cc2O1 [Compound 8] | 2 | 1 | 2 | 2 | 1 | 2 |
| FC1(F)Oc2ccc(-c3nc4c5cccnc5c5ncccc5c4[nH]3)cc2O1 [Compound 5] | 8 | 4 | 4 | 8 | 7 | 4 |
| FC1(F)Oc2ccc(-c3nc4c5cccnc5c5ncccc5c4[nH]3)cc2O1 [Compound 3] | 4 | 8 | 7 | 6 | 2 | 6 |
| FC1(F)Oc2ccc(-c3nc4c5cccnc5c5ncccc5c4[nH]3)cc2O1 [Compound 4] | 7 | 3 | 3 | 4 | 5 | 3 |
| FC1(F)Oc2ccc(-c3nc4c5cccnc5c5ncccc5c4[nH]3)cc2O1 [Compound 1] | 6 | 6 | 8 | 5 | 4 | 8 |
| FC1(F)Oc2ccc(-c3nc4c5cccnc5c5ncccc5c4[nH]3)cc2O1 [Compound 6] | 1 | 2 | 1 | 1 | 2 | 1 |
| FC1(F)Oc2ccc(-c3nc4c5cccnc5c5ncccc5c4[nH]3)cc2O1 [Compound 2] | 3 | 7 | 6 | 7 | 3 | 7 |
